# Data taken from paper doi:10.1101/2021.07.08.451586.
# Amino acid sequences for entries named in this document (tags omitted).
# UniProt Q15172, whole entry: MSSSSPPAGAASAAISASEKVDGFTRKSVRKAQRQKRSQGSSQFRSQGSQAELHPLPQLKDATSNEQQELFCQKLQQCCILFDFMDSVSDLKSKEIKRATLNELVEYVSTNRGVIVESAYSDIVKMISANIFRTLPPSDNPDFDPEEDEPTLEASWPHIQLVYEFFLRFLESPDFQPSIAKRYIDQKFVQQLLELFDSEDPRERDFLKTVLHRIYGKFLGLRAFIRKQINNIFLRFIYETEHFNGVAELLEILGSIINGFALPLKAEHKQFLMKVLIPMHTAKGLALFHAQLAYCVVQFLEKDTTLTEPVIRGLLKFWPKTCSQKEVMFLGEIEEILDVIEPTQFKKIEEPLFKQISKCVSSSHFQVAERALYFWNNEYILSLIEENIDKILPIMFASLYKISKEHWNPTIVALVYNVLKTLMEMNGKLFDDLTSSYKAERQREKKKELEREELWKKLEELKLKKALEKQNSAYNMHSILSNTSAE
# UniProt P30153, whole entry: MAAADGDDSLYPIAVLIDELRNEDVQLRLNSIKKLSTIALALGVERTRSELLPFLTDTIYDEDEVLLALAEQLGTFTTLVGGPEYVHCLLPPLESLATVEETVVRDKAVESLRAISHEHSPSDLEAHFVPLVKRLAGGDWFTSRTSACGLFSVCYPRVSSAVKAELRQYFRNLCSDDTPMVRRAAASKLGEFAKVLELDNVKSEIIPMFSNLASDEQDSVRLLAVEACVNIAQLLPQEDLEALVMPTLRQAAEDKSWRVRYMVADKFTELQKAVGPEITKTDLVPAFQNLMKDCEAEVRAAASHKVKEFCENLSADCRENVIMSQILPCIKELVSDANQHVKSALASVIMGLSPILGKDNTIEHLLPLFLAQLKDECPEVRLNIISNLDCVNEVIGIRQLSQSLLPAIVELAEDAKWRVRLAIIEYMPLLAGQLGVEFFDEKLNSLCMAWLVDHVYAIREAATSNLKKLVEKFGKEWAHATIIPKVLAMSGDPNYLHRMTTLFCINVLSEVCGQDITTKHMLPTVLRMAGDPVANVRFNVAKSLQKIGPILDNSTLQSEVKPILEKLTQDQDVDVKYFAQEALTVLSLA
# Results are given in words; binding and its absence hold for the method and conditions named. Binding seen in cells or lysates may run through a third protein. Some binding calls cover weakened binding; strength is not graded here.
# Target: Strep-B56α (UniProt Q15172)
# Test: pull-down + SEC
substance,measurement,value
MBP-PPP2R1A (from UniProt P30153 1-589),binding,binds
